Laboratory results taken from PubChem BioAssay AID493014 (National Center for Advancing Translational Sciences (NCATS), 2011).
The list shows a part of the results. The main result of the screen is listed elsewhere. These columns were measured beside it and carry no call. Most of these compounds were active or inconclusive in the main read-out, so they are no random draw. Potencies come from curve fits of mixed quality, noted in brackets.

Experiment: qHTS Assay to Find Inhibitors of Chronic Active B-Cell Receptor Signaling
Conditions: ABC-DLBCL IkBa-CBG/CBR reporter, luminescence ratio (green luciferase fused to IkBa over red control in TMD8 lymphoma cells), 4 h
In short: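 TMD8 human ABC-DLBCL cells with doxycycline-inducible IκBα–green luciferase fusion and unfused red luciferase, in 0.5% FBS medium; compounds up to 46 uM, 4 h at 37C. Green/red luminescence ratio, filter-overlap corrected, fitted to concentration-response curves.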

[1] = measured here: CBR red luminescence, cell number
[2] = measured here: IkBa-CBG green luminescence

Compound | AC50 [1] | AC50 [2]
C=C1CCN([C@H](C(=O)NCc2ccc(Cl)c(Cl)c2)C(C)C)S(=O)(=O)c2ccccc21 | 6.31 µM [falling, full curve] | 
O=C1NC[C@@H](Cc2ccc(O)cc2)N(CC2CCCCC2)C1=O | 22.4 µM [rising, single point] | 
CCOC(=O)CSc1nnc(NC(=O)CN2CCN(C=O)CC2)s1 | 4.47 µM [falling, full curve, poor fit] | 
Cn1cccc1C(=O)NC(=O)COC(=O)c1ccc(S(C)(=O)=O)c([N+](=O)[O-])c1 | 16.4 µM [falling, partial curve] | 
CC(=O)NC(Cc1ccccc1C)C(=O)NC1CCN(C(=O)NCc2ccccc2)CC1 (stereo not drawn) | 31.6 µM [rising, single point] | 
CCn1c(SCC(=O)Nc2ccc(C(C)=O)cc2)nc2ccccc21 | 20.6 µM [rising, single point] | 
COc1ccc(NC(C)=O)cc1S(=O)(=O)N(C)Cc1c(C)nn(-c2ccccc2)c1C | 29.1 µM [rising, single point] | 
COCCOC(=O)C1=C(C)N=c2s/c(=C\c3cccs3)c(=O)n2C1c1cccs1 (stereo not drawn) | 0.517 µM [falling, partial curve, poor fit] | 
CC(=O)c1cccc(NC(=S)NCCc2ccc(Cl)cc2)c1 | 10 µM [falling, partial curve] | 
Cc1ccc(O)c(C(=O)c2cc(C#N)c(=O)n(-c3nccs3)c2)c1 | 3.98 µM [falling, full curve, poor fit] | 
Cc1ccc2c(c1)/C(=C/c1ccccc1)C(=O)N2 | 12.6 µM [falling, partial curve, poor fit] | 
O=C(CCc1c[nH]c2ccccc12)NCCc1ccccc1 | 0.562 µM [rising, full curve, poor fit] | 
CCSc1nnc(NC(=O)c2cccnc2)s1 | 14.6 µM [falling, partial curve] | 
O=C(Nc1cccc2cccnc12)C1CCCC1 | 3.26 µM [rising, full curve, poor fit] | 
O=C(NCCCN1CCOCC1)c1cc(-c2ccc(F)cc2)on1 | 0.794 µM [falling, full curve, poor fit] | 
O=C(N/N=C/c1cccs1)c1cccc2cc[nH]c12 | 5.01 µM [falling, partial curve] | 
O=C(N/N=C/c1ccc(-c2ccccc2Cl)o1)c1ccccc1 | 35.5 µM [falling, single point] | 
COc1ccc(C(=O)NC(=S)Nc2ccc(N3CCOCC3)c(Cl)c2)cc1[N+](=O)[O-] | 7.31 µM [rising, partial curve] | 
CCC(=O)Nc1ccc(Cl)c(NC(=S)NC(=O)COc2ccccc2)c1 | 10.3 µM [rising, partial curve, poor fit] | 
c1ccc2[nH]c(NN=C3CCCCCC3)nc2c1 | 35.5 µM [falling, single point] | 
O=C1NN(c2ccccc2)C(=O)/C1=C\c1ccc(-c2cc([N+](=O)[O-])ccc2O)o1 | 12.6 µM [falling, partial curve, poor fit] | 

Compound | AC50 [1] | AC50 [2]
O=S(=O)(c1cccs1)N1CCN(CC(O)COc2cccc(Br)c2)CC1 (stereo not drawn) | 0.651 µM [rising, partial curve, poor fit] | 
COc1ccc(OC)c(C2NC(=O)NC(C)=C2C(=O)OC2CCCCC2)c1 (stereo not drawn) | 6.31 µM [rising, partial curve, poor fit] | 
COc1cccc(C(=O)OC2CCCN(C)C2)c1 (stereo not drawn) | 29.1 µM [falling, single point] | 
Cc1cc(C)nc(SCc2nnc(SCC(=O)N3CCOCC3)o2)n1 | 35.5 µM [rising, single point] | 
COc1ccccc1C(=O)N/N=C(\C)CC(=O)Nc1ccccc1NC(C)=O | 0.794 µM [falling, full curve, poor fit] | 
Cc1c(CN(C)Cc2cn(C)nc2-c2ccccc2F)[nH]c2ccccc12 | 12.6 µM [falling, single point] | 
Clc1ccc(SCc2cn3ccsc3n2)cc1 | 0.501 µM [rising, full curve, poor fit] | 
Cc1c(C(=O)OCc2ccccc2)nnn1-c1nonc1N | 7.08 µM [rising, full curve, poor fit] | 
Cc1ccc(-c2ccc(C(=O)NCc3ccc(Cl)cc3)o2)c2ccccc12 | 2.31 µM [falling, partial curve] | 
CCOC(=O)N1CCN(Cc2nc(N)nc(Nc3ccc(Oc4ccccc4)cc3)n2)CC1 | 14.6 µM [falling, partial curve, poor fit] | 29.1 µM [falling, single point]
N#Cc1ccc(C(=O)NC23CC4CC(CC(C4)C2)C3)cc1 | 7.08 µM [rising, partial curve, poor fit] | 
CSc1ccc(C2C(C#N)=C(N)Oc3c2ccc(=O)c2c(C)oc(C)c32)cc1 (stereo not drawn) | 16.4 µM [rising, single point] | 
Cc1nc(NC(=S)NC(=O)COc2ccccc2Cl)ccc1Br | 29.1 µM [rising, partial curve, poor fit] | 
O=C(NC(=S)Nc1ccc(Br)cn1)c1cccnc1 | 3.98 µM [rising, full curve, poor fit] | 
O=C(NNC(=S)NCC1CCCO1)c1ccc(S(=O)(=O)N2CCOCC2)cc1 (stereo not drawn) | 20 µM [rising, single point] | 
CN(C)/C=C1/Nc2ccccc2C1=O | 8.2 µM [falling, partial curve, poor fit] | 
CCCc1cc(C(=O)NCC(C)C)no1 | 25.1 µM [falling, single point] | 
COc1ccc(/C=N/NC(=O)c2cc3c(OC)ccc(OC)c3[nH]2)cc1O | 5.01 µM [rising, partial curve] | 2.24 µM [falling, full curve]
CSc1ccc(C(=S)N2CCN(Cc3ccccc3)CC2)cc1 | 0.82 µM [falling, full curve, poor fit] | 
CC1CCCCC12NC(=S)N(c1ccccc1)N2 (stereo not drawn) | 4.47 µM [rising, single point] | 
Cc1cc([N+](=O)[O-])nn1Cc1ccc(C(=O)N/N=C/c2ccc(O)cc2O)cc1 | 23.1 µM [falling, partial curve] | 

Molecules from the list above containing bromine, in the order listed:
Compound | AC50 [1] | AC50 [2]
O=S(=O)(c1cccs1)N1CCN(CC(O)COc2cccc(Br)c2)CC1 (stereo not drawn) | 0.651 µM [rising, partial curve, poor fit] | 
Cc1nc(NC(=S)NC(=O)COc2ccccc2Cl)ccc1Br | 29.1 µM [rising, partial curve, poor fit] | 
O=C(NC(=S)Nc1ccc(Br)cn1)c1cccnc1 | 3.98 µM [rising, full curve, poor fit] | 

More compounds

Compound | AC50 [1] | AC50 [2]
COc1cccc(OC)c1OC(=O)/C=C/c1ccc(C)o1 | 15.8 µM [rising, partial curve] | 
O=C(CCc1ccccc1)NNC(=O)c1ccccc1C(=O)O | 29.1 µM [rising, single point] | 
COc1ccc(C2C(C#N)=C(N)SC(N)=C2C#N)cc1OC | 0.731 µM [falling, full curve, poor fit] | 
COC1CCN(Cc2c(C(=O)N3CCc4ccccc4C3)nc3ccc(Cl)cn23)CC1 | 3.98 µM [rising, partial curve, poor fit] | 
CCc1nc(Nc2ccc(OC)c(OC)c2)c2nnn(Cc3ccccc3Cl)c2n1 | 7.31 µM [falling, partial curve, poor fit] | 
CCNc1nc(NCC)nc(Oc2ccc(N)cc2)n1 | 29.1 µM [rising, single point] | 
CCCC1=NN(C(=O)C(=O)Nc2ccc(Br)cc2)C(O)(C(F)(F)F)C1 (stereo not drawn) | 10 µM [falling, partial curve, poor fit] | 
Cc1ccc(C)c(CN2C(=O)c3ccccc3S(=O)c3ccc(C(=O)NCCCN4CCCC4)cc32)c1 (stereo not drawn) | 7.08 µM [falling, partial curve, poor fit] | 
CC(C)N1C(=O)/C(=C/c2nc3ccccc3c(=O)n2-c2ccccc2)c2ccccc21 | 0.116 µM [falling, full curve, poor fit] | 9.2 µM [falling, partial curve]
Cc1ccc(C2=NN(C(=O)CCl)C(c3cccs3)C2)o1 (stereo not drawn) | 6.51 µM [falling, partial curve] | 
Cc1cc(/C=C2/NC(=O)NC2=O)c(C)n1-c1ccc(C#N)cc1 | 17.8 µM [rising, single point] | 
Cc1nn(C)c(=O)n1-c1ccc(Oc2ccccc2)cc1 | 29.1 µM [rising, single point] | 
CCOC(=O)N1CC=C2C(C#N)=C(N)C(C#N)(C#N)[C@H](c3cccs3)C2C1 (stereo partly drawn) | 14.6 µM [falling, single point] | 
c1csc(-c2nc(NCCCN3CCOCC3)c3ccccc3n2)c1 | 35.5 µM [falling, single point] | 
c1ccc(CNc2nc(NCc3ccco3)nc(N3CCOCC3)n2)cc1 | 1.26 µM [rising, partial curve, poor fit] | 11.2 µM [falling, partial curve, poor fit]
COC1CCCCC1Nc1cccc(SC)c1 (stereo not drawn) | 29.1 µM [rising, single point] | 
O=C(Nc1nc2cc3c(cc2s1)OCCO3)c1cccs1 | 2.24 µM [falling, full curve] | 
CCCCCCCNC(=O)CC(NS(=O)(=O)c1ccc(NC(C)=O)cc1)C(C)C (stereo not drawn) | 9.2 µM [rising, partial curve] | 
CN1CCN2c3ccccc3Cc3ccccc3C2C1 (stereo not drawn) |  | 31.6 µM [rising, partial curve, poor fit]
CC(C)c1[nH]nc2c1C(c1cccs1)C(C#N)=C(N)O2 (stereo not drawn) | 4.11 µM [falling, full curve] | 23.1 µM [rising, partial curve, poor fit]
Cc1ccc(NC(=O)NC2C(NC(=O)Nc3ccc(C)cc3)N(C)C(=O)N2C)cc1 (stereo not drawn) | 9.2 µM [rising, partial curve] | 
